The structures appear in SMILES notation. Some of the results follow. These are further read-outs of the screen, such as a control signal, another cell line or another target. No call is given for them.

This test in a line: growth inhibition of wild-type RFP versus H38-humanized GFP E. coli, dose response, H38 mutant GFP vs wild-type RFP, cherry-pick (AID 977627). The note with it: E. coli H38 humanized ribosome GFP strain, fluorescence, 24 h; measured here: wild-type RFP strain growth; at 50 µM; stronger effect = lower value.
On to `CC[C@H]1OC(=O)[C@H](C)[C@@H](O[C@H]2C[C@@](C)(OC)[C@@H](O)[C@H](C)O2)[C@H](C)[C@@H](O[C@@H]2O[C@H](C)C[C@H](N(C)C)[C@H]2O)[C@](C)(O)C[C@@H](C)[C@@H]2N[C@@H](COCCOC)O[C@H]([C@H]2C)[C@]1(C)O`, for which the activity was -79.1%. Then `Cc1ccc(S(=O)(=O)N2CC[C@H]3[C@H](CO)Nc4ccc(Br)cc4[C@H]32)cc1`, with -85.3%. As to `CC(CNc1ccc(Cl)cc1)(CNc1ccc(Cl)cc1)[N+](=O)[O-]`, the activity is -32%. Then `C[C@@H]1CCCCO[C@H](CN(C)CC2CC2)[C@H](C)CN([C@@H](C)CO)C(=O)c2cc(NC(=O)Nc3cccc4ccccc34)ccc2O1`, with -95.9%; and `C[C@@H]1CCCCO[C@H](CN(C)C(=O)CCCN(C)C)[C@H](C)CN([C@@H](C)CO)C(=O)c2cc(NC(=O)Nc3cccc4ccccc34)ccc2O1`, with -44.9%.

Consider `COc1ccc(Cn2c(-c3ccc(Cl)cc3)c[n+]3ccccc23)cc1`, for which the activity is -67.6%. Then `Cc1cc(C)c(C#N)c(N2CCN(c3ccccc3)CC2)n1`, with -58.4%; and `CCOC(=O)c1c(NC(=O)Cc2cccs2)sc(C)c1C`, with -80.6%. For `COc1ccc2[nH]c3c(=O)n(CCCCC(=O)NCCC(C)C)c(=S)[nH]c3c2c1` the value was -6.76%; for `Cc1cc(C)c(OCCNC(=O)c2ccccc2Sc2ccccc2C#N)c(C)c1`, -23.3%. Take `COc1ccc(NC(=O)c2ccc(-c3ccc([N+](=O)[O-])cc3)o2)cc1`: the activity is -38.3%. For `Cc1[nH]c(=S)sc1Cc1ccc(Cl)c(Cl)c1` the value was -28.2%; for `C=CCNC(=O)c1ccccc1NC(=O)c1ccc(Cl)c(S(=O)(=O)Nc2cccc(C)c2C)c1`, -60.6%; for `CCn1c(-c2cc(-c3ccc(OC(C)C)cc3)nc3ccccc23)n[nH]c1=S`, -25.6%. Regarding `COc1ccc(Nc2oc(-c3ccco3)nc2S(=O)(=O)c2ccc(F)cc2)cc1`, the activity is -5.15%.

For the molecule `CCN(CC)CCn1c2ccccc2c2nc3ccc([N+](=O)[O-])cc3cc21`, the activity is -15.8%.

Regarding `COc1ccc(-n2cc(-c3ccccc3)c3c(N4CCOCC4)ncnc32)cc1`, the activity is -81.3%. `COc1cccc(C(=O)Nc2cc(C)nn2-c2ccccc2)c1OC`: the activity was -78.5%. For `Cc1ccc(C)c(NC(=O)CSc2nc3nc(-c4cccs4)cc(C(F)(F)F)c3c(=O)[nH]2)c1` the value was -51%; for `CSc1nc(N)nc(SC2C=CCCC2)c1C#N` (stereo not drawn), -53.1%; for `O=C(O)c1cc([N+](=O)[O-])ccc1NCc1ccccc1`, -38.6%.

`Cc1c(C(=O)O)sc2nc(CSc3ncc(C(F)(F)F)cc3Cl)[nH]c(=O)c12`: the activity was -84.8%.

As to `COc1cc2c(cc1[N+](=O)[O-])-c1ccc([N+](=O)[O-])cc1C2`, the activity is -2.43%.

The values are drawn from PubChem BioAssay AID977627 (Broad Institute, 2014).
